One molecule from PMC5345684 can be followed below.

No constants are given. Whether binding was seen depends on the method and setting. Some binding calls cover weakened binding; strength is not graded here. Where a sequence is shown, tags or fusion partners need not be part of it.

The assay has as its target T1, Myc-tagged retinoschisin (non-mutant), purified (human), O15537.
T1 chain: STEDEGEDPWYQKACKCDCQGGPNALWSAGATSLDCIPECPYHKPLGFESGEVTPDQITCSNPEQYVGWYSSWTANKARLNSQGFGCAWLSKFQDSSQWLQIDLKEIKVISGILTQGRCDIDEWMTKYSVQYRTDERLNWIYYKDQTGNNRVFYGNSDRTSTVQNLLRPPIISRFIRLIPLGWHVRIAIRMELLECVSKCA
In words: SDS-PAGE under non-reducing and reducing conditions, Western blot; aliquots of Hek293 culture supernatant and of purified Myc-tagged RS1 fractions on 4-20% gradient gels, antiretinoschisin antibody; disulphide-linked oligomers; both purified. The following applies: remark: other sources report otherwise.

B1: Myc-tagged retinoschisin (non-mutant), purified, O15537 24-224 (protein)
chain: T1 chain
Consider B1, for which the binding entry is given as “binds”.
